Measured values published in PMC7033568.
These are yes or no findings as the source states them, for the method shown. In cells and extracts the contact can be indirect. Some entries that bind do so weakly or less than the wild type. Where a sequence is shown, tags or fusion partners need not be part of it.

Amino acid sequences for entries named in this document (tags omitted).
UniProt P27986: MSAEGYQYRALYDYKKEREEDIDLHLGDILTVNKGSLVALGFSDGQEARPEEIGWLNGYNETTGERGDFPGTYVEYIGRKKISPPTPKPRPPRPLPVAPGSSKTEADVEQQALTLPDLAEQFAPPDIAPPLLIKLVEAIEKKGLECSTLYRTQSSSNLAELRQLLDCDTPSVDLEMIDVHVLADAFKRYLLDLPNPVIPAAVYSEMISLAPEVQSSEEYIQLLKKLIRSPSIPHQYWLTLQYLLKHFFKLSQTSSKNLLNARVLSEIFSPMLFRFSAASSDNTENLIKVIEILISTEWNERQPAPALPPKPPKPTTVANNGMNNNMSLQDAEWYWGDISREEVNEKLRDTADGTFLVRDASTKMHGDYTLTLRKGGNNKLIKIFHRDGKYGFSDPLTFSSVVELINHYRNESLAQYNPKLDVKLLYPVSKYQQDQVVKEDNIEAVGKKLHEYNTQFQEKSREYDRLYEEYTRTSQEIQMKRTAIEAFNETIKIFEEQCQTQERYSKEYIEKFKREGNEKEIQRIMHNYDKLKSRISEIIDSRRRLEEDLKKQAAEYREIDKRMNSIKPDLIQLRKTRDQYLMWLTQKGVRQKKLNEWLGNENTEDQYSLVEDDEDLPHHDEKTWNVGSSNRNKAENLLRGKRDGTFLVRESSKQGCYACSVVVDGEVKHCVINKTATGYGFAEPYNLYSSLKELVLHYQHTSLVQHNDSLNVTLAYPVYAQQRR

Target: HA-PIK3R1 (UniProt P27986)
Test: co-IP; HEK293 cells co-transfected with Flag-LRRC4 and HA-PIK3R1; precipitated with control IgG, Flag or PIK3R1 antibodies, protein A magnetic beads, 4°C; immunoblot

binding: binds
B1: Flag-LRRC4 (Leucine-rich repeat-containing protein 4) (protein, UniProt Q9HBW1 39-653)
chain: ASAGPQNCPSVCSCSNQFSKVVCTRRGLSEVPQGIPSNTRYLNLMENNIQMIQADTFRHLHHLEVLQLGRNSIRQIEVGAFNGLASLNTLELFDNWLTVIPSGAFEYLSKLRELWLRNNPIESIPSYAFNRVPSLMRLDLGELKKLEYISEGAFEGLFNLKYLNLGMCNIKDMPNLTPLVGLEELEMSGNHFPEIRPGSFHGLSSLKKLWVMNSQVSLIERNAFDGLASLVELNLAHNNLSSLPHDLFTPLRYLVELHLHHNPWNCDCDILWLAWWLREYIPTNSTCCGRCHAPMHMRGRYLVEVDQASFQCSAPFIMDAPRDLNISEGRMAELKCRTPPMSSVKWLLPNGTVLSHASRHPRISVLNDGTLNFSHVLLSDTGVYTCMVTNVAGNSNASAYLNVSTAELNTSNYSFFTTVTVETTEISPEDTTRKYKPVPTTSTGYQPAYTTSTTVLIQTTRVPKQVAVPATDTTDKMQTSLDEVMKTTKIIIGCFVAVTLLAAAMLIVFYKLRKRHQQRSTVTAARTVEIIQVDEDIPAATSAAATAAPSGVSGEGAVVLPTIHDHINYNTYKPAHGAHWTENSLGNSLHPTVTTISEPYIIQTHTKDKVQETQI
